Measured values as given in the supplement of paper PMC10849652.
Some of the results follow.

Protein sequences, listed by entry. Tags and fused reporters are not part of them. Lines headed by an entry give the natural chain unless they say otherwise; changes in a name come on top.
UniProt Q8WTW3: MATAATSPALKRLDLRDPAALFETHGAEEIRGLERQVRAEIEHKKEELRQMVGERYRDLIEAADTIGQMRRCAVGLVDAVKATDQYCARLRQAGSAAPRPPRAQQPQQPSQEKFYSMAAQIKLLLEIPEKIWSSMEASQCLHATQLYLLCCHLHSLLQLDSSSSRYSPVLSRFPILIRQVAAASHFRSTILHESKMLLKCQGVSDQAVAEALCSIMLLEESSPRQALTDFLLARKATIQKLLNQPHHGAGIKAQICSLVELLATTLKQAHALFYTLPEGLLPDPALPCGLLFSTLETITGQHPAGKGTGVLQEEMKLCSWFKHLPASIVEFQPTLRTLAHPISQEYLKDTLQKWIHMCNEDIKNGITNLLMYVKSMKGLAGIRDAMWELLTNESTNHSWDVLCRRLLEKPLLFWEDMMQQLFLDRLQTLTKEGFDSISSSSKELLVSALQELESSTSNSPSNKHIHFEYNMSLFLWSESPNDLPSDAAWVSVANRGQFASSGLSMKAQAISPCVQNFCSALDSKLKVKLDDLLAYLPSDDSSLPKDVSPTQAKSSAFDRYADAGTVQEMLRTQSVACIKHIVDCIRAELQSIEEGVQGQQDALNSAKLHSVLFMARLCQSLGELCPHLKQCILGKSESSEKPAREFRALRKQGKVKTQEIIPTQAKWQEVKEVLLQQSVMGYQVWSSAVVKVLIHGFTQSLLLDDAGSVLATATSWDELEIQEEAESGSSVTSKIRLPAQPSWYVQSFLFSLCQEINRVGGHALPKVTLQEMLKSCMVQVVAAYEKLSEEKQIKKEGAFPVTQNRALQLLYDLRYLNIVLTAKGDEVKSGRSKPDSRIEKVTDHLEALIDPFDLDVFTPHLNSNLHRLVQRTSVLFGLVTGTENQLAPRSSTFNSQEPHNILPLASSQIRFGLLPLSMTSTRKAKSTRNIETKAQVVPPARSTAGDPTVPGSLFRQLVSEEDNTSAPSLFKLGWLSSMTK
UniProt Q99829: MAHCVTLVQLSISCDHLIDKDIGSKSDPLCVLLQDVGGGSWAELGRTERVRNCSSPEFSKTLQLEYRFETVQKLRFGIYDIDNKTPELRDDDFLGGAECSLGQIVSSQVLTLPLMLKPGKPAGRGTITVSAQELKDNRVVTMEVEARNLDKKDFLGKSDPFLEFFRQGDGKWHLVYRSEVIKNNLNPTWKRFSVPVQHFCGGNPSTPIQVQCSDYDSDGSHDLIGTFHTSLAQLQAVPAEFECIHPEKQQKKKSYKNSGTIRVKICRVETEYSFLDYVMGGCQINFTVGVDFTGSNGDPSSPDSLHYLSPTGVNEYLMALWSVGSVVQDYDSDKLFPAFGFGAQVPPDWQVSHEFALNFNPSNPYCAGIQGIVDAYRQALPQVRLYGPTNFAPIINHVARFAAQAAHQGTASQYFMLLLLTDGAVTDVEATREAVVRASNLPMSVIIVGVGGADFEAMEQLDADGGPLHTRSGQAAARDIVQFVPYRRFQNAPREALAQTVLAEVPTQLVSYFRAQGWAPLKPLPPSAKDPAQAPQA
UniProt P20674, whole entry, looked up: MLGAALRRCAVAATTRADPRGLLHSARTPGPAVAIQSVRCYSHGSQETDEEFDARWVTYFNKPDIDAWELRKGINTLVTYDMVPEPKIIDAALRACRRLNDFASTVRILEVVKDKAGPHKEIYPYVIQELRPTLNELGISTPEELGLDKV
UniProt Q86WW8: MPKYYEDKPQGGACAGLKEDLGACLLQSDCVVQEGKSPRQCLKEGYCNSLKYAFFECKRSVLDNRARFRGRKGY
UniProt Q9Y646: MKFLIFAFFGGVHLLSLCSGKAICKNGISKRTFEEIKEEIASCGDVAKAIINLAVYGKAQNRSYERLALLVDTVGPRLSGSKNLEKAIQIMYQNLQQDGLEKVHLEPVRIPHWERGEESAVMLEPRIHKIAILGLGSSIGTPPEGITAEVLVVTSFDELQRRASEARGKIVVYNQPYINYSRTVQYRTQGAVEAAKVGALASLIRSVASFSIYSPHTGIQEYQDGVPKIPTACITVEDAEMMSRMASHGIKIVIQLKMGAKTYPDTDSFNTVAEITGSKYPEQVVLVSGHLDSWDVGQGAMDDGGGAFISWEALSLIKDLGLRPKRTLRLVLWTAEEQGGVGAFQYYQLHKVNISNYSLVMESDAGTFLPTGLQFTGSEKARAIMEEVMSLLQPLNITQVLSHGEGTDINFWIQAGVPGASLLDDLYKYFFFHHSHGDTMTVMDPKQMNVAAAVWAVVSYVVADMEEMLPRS
UniProt Q8N668, whole entry, looked up: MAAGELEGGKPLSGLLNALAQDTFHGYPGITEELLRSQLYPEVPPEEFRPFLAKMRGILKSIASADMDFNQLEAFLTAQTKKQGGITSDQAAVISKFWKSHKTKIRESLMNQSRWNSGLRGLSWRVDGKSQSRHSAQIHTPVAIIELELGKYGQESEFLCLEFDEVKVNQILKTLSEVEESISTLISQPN
UniProt P39059: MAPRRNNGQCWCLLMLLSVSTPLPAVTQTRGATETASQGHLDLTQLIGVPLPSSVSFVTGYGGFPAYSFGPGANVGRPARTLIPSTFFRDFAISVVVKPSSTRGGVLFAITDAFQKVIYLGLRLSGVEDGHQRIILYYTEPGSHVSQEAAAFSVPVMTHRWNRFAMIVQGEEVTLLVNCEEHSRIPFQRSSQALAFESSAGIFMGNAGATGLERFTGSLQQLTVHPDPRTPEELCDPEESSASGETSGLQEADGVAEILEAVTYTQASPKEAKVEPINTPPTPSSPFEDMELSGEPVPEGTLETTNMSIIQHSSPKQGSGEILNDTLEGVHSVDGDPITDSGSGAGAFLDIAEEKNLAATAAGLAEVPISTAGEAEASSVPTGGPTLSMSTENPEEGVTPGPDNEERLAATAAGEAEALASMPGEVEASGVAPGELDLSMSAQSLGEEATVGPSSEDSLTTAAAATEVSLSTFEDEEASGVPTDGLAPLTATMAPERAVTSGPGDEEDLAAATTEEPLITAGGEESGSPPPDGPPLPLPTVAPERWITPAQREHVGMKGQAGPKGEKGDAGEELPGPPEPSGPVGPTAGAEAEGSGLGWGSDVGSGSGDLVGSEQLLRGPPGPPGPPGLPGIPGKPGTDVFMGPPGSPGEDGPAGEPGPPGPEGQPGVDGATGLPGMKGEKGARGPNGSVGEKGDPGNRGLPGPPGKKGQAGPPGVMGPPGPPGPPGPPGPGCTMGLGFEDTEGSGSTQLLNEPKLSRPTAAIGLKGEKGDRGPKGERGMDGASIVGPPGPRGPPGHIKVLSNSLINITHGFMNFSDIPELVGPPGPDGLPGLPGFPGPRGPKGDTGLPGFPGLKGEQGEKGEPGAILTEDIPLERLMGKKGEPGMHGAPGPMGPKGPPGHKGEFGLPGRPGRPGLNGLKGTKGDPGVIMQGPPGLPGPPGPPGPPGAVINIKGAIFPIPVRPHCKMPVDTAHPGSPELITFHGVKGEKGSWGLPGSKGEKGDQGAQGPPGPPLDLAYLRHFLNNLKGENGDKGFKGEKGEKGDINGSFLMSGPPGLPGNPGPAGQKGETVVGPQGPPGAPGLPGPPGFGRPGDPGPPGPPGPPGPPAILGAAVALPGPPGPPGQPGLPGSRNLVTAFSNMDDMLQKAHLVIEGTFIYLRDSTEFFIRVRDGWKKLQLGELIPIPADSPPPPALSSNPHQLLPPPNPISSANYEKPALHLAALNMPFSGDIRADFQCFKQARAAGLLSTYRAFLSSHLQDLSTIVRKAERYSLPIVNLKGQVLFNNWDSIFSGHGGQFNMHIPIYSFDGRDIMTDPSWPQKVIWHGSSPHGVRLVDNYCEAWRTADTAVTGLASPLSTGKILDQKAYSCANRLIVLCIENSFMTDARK
UniProt Q8N8Q8: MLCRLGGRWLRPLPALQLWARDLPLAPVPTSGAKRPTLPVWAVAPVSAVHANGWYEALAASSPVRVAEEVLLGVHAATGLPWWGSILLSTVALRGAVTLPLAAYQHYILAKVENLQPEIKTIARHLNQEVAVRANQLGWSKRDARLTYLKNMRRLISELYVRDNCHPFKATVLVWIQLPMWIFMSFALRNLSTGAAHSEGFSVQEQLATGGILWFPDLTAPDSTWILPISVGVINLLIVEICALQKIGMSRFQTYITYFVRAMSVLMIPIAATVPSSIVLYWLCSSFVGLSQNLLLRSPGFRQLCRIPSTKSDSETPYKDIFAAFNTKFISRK
UniProt P23786: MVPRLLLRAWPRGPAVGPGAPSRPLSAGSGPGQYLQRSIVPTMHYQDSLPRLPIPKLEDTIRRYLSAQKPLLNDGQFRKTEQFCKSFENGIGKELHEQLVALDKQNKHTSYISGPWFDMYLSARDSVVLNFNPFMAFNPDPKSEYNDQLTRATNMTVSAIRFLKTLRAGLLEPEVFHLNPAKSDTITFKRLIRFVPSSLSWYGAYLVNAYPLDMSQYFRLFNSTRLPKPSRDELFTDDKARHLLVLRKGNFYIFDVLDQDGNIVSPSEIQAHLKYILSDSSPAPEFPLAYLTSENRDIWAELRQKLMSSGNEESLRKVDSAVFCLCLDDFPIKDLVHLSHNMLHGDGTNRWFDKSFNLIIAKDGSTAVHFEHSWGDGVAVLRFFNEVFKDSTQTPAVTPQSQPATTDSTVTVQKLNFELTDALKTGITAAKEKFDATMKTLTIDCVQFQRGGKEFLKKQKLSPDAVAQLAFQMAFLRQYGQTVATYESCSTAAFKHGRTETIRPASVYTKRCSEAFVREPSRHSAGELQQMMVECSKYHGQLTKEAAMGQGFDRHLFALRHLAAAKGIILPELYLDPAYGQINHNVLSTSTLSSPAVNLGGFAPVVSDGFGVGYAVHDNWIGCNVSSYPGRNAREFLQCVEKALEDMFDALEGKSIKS
UniProt Q9UBW8: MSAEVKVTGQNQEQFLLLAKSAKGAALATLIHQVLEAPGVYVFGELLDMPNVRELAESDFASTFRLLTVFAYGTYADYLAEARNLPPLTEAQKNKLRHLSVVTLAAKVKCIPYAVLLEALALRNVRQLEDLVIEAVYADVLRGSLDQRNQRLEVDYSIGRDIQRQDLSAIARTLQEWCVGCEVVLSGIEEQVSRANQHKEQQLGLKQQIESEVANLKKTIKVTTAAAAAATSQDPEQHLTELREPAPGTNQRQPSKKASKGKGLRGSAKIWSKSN
UniProt Q96JB2: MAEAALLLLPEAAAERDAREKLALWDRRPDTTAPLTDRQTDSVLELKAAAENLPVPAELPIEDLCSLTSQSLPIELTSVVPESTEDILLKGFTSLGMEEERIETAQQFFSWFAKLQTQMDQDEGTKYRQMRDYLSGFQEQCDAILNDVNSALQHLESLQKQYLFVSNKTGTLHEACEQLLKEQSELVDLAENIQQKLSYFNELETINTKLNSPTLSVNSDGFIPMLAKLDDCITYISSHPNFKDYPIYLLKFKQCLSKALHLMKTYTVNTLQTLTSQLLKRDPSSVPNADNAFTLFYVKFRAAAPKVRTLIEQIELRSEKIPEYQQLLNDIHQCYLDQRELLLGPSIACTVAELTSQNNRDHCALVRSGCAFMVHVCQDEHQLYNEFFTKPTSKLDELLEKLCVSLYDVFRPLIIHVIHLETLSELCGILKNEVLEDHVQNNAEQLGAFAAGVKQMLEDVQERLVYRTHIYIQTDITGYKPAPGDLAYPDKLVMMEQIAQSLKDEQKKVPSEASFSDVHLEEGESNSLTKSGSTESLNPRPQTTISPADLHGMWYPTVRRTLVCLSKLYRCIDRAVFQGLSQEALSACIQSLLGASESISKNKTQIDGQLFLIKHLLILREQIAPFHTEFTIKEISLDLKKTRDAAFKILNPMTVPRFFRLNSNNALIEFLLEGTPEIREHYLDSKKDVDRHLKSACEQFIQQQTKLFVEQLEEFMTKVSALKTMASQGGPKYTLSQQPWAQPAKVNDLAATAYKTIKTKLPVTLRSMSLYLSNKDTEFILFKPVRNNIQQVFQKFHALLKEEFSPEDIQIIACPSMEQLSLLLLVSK
UniProt P15954, whole entry, looked up: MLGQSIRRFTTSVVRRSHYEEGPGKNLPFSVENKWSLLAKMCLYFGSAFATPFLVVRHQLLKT
UniProt O95628: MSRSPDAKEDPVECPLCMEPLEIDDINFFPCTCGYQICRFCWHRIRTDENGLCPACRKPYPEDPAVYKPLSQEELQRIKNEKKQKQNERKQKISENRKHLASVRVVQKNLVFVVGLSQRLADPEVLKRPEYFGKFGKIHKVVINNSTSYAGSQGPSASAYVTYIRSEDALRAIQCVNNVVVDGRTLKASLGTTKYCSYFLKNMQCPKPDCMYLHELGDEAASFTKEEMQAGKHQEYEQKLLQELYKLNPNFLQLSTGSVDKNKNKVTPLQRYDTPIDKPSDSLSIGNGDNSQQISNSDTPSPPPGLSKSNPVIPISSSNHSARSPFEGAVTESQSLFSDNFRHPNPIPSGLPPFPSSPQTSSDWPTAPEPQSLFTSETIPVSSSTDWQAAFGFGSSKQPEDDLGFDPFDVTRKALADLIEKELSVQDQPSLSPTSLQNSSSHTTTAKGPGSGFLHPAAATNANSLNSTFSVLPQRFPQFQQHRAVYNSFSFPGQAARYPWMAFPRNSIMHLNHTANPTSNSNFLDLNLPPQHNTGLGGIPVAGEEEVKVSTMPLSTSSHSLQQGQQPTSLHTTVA

What follows are targets tested with NCC(=O)Nc1ccc(-n2nc(C(F)(F)F)cc2-c2ccc3c(ccc4ccccc43)c2)cc1 (assay: log2 fold change, soluble protein after heating vs DMSO (PISA); higher = thermal stabilisation; K562 lysate, 10 uM; active = over 0.2 and 3.5 SD of the protein, either way, in both replicates (recomputed)).
How it was run: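 Log-two fold change in thermal stability relative to solvent controls is reported from duplicates. For each sample, crude K562 extract from dounce-homogenised pellets in PBS pH 7.4 with 1 mM MgCl2, at 1 mg/mL protein, was treated with 10 μM compound for 30 min. Aliquots heated for 3 min across 48°C-58°C were pooled, brought to 0.5% NP-40 at 4°C and cleared at 21,000xg for 90 min. The supernatant was quantified by TMTpro 16plex LC-MS/MS with channel sums equalised.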
In the case of COG1 (UniProt Q8WTW3), the log2 fold change is reported as inactive: 0.
In the case of CPNE1 (UniProt Q99829), the log2 fold change is reported as inactive: -0.02.
With COX5A (UniProt P20674) the log2 fold change was inactive: -0.075.
For COA5 (UniProt Q86WW8), the log2 fold change was inactive: 0.
CNPY3 (UniProt Q9BT09) was tested, and the log2 fold change was inactive: -0.072.
CNPY4 (UniProt Q8N129) was tested, and the log2 fold change was inactive: 0.041.
In the case of COL18A1 (UniProt P39060), the log2 fold change is reported as inactive: -0.147.
CPQ (UniProt Q9Y646) was tested, and the log2 fold change was inactive: -0.001.
In the case of COMMD1 (UniProt Q8N668), the log2 fold change is reported as inactive: 0.012.
For COL15A1 (UniProt P39059), the log2 fold change was inactive: -0.062.
In the case of COX18 (UniProt Q8N8Q8), the log2 fold change is reported as inactive: 0.019.
With COIL (UniProt P38432) the log2 fold change was inactive: -0.137.
In the case of CPT2 (UniProt P23786), the log2 fold change is reported as inactive: -0.036.
With COQ5 (UniProt Q5HYK3) the log2 fold change was inactive: -0.005.
With COPS7B isoform 3 (UniProt Q9H9Q2) the log2 fold change was inactive: 0.144.
With CNOT3 (UniProt O75175) the log2 fold change was inactive: 0.027.
CNNM2 (UniProt Q9H8M5) was tested, and the log2 fold change was inactive: 0.001.
With COPS5 (UniProt Q92905) the log2 fold change was inactive: -0.017.
In the case of COPS7A (UniProt Q9UBW8), the log2 fold change is reported as inactive: -0.042.
For COG3 (UniProt Q96JB2), the log2 fold change was inactive: 0.011.
With CRACR2A isoform 2 (UniProt Q9BSW2) the log2 fold change was inactive: 0.022.
For COX4I1 (UniProt P13073), the log2 fold change was inactive: 0.035.
For COX7C (UniProt P15954), the log2 fold change was inactive: -0.025.
In the case of CNOT4 isoform 6 (UniProt O95628), the log2 fold change is reported as inactive: -0.028.
